PubChem BioAssay AID1508588 – Peter MacCallum Cancer Centre | 2020

Purpose: 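Which gene losses make BRAF-mutant melanoma cells more responsive to vemurafenib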 (primary screen)
Cell system: human WM266.4 melanoma cells (BRAF V600 mutant)
Reagent: siRNA pool against human genes, 40 nM
Time to read-out: 96 h from transfection to read-out
Treatment: vemurafenib 300 nM (about IC25), added 48 h after transfection, for 48 h; comparison arm got DMSO vehicle only
Measured: 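Ratios to non-targeting siRNA for cell gain, counted as DAPI nuclei after minus before drug and averaged over two replicates, and for absorbance-read medium lactate per cell; both binned into fold-change classes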
Direction: cell gain with vemurafenib: higher = more cell gain than with non-targeting siRNA; lactate per cell with vemurafenib: higher = more lactate made per cell
Rule for the call: 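Enhancement is called by pairing each knock-down's vehicle-arm and drug-arm fold-change classes for viability or glycolysis; which class combinations qualify is not given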
Calls: active = enhances vemurafenib effect; inactive = no enhancement seen
In all, the deposit lists about 18,000 reagents; shown is an unselected part. 790 of all reagents (4.4%) were called active. 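Calls rest on a combination of fold-change classes in drug and vehicle arms, not all shown here.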

no.	gene symbol	PubChem SID	cell gain with vemurafenib	lactate per cell with vemurafenib	outcome
1	PLEKHA8P1 (pleckstrin homology domain containing A8 pseudogene 1)	SID134324568	0.46	0.87	inactive
2	LONP1 (lon peptidase 1, mitochondrial)	SID134310197	0.48	0.37	inactive
3	TOR1AIP2 (torsin 1A interacting protein 2)	SID134318229	0.93	1.37	inactive
4	TOR1AIP2 (torsin 1A interacting protein 2)	SID152150266	0.77	1	inactive
5	RNASE13 (ribonuclease A family member 13 (inactive))	SID135625310	0.24	1.1	inactive
6	TMEM9B (TMEM9 domain family member B)	SID134324356	0.32	1.19	inactive
7	ZFP41 (ZFP41 zinc finger protein)	SID152156606	1.26	0.58	inactive
8	FBXO30 (F-box protein 30)	SID152151344	0.42	1.19	inactive
9	RPS14 (ribosomal protein S14)	SID152149573	-0.09	1.21	inactive
10	RRAGA (Ras related GTP binding A)	SID152154838	1.03	0.64	inactive
11	INTS12 (integrator complex subunit 12)	SID152149378	0.96	0.77	inactive
12	PON2 (paraoxonase 2)	SID135621819	0.65	0.82	inactive
13	KBTBD7 (kelch repeat and BTB domain containing 7)	SID152156141	0.41	1.01	inactive
14	CKMT1A (creatine kinase, mitochondrial 1A)	SID135625399	0.69	0.84	inactive
15	VRK3 (VRK serine/threonine kinase 3)	SID135620981	0.68	0.64	inactive
16	SDC3 (syndecan 3)	SID135624010	0.4	1.49	inactive
17	DDI2 (DDI proteasomal shuttling factor 2)	SID135621670	0.77	0.8	inactive
18	DDI2 (DDI proteasomal shuttling factor 2)	SID152148202	0.54	0.85	inactive
19	LGALS9 (galectin 9)	SID135622106	0.15	0.94	inactive
20	FXR1 (FMR1 autosomal homolog 1)	SID152147249	0.65	0.92	inactive
21	GABBR2 (gamma-aminobutyric acid type B receptor subunit 2)	SID134311021	0.1	2.08	inactive
22	KRT77 (keratin 77)	SID135625036	0.99	0.9	inactive
23	NCR3 (natural cytotoxicity triggering receptor 3)	SID134320868	0.14	0.8	inactive
24	CDX1 (caudal type homeobox 1)	SID152150507	0.63	1.43	inactive
25	STARD6 (StAR related lipid transfer domain containing 6)	SID134320859	0.76	0.84	inactive
26	HERC2 (HECT and RLD domain containing E3 ubiquitin protein ligase 2)	SID152156673	0.63	0.74	inactive
27	YTHDF1 (YTH N6-methyladenosine RNA binding protein F1)	SID135623451	0.86	0.67	inactive
28	TBC1D32 (TBC1 domain family member 32)	SID152146896	0.84	0.98	inactive
29	ZNF600 (zinc finger protein 600)	SID152153011	1.08	0.74	inactive
30	FGF23 (fibroblast growth factor 23)	SID134317406	0.01	1.67	inactive
31	ACOX3 (acyl-CoA oxidase 3, pristanoyl)	SID152154306	0.72	0.81	inactive
32	LONP2 (lon peptidase 2, peroxisomal)	SID134311360	0.28	1.35	inactive
33	MST1 (macrophage stimulating 1)	SID134313787	0.59	0.96	inactive
34	ASAP1 (ArfGAP with SH3 domain, ankyrin repeat and PH domain 1)	SID152154104	0.1	1.27	inactive
35	TCTA (T cell leukemia translocation altered)	SID152147384	0.77	0.96	inactive
36	SLC38A6	SID135621408	0.8	0.45	active
37	WNT4 (Wnt family member 4)	SID152151801	0.27	1.25	inactive
38	TBX19 (T-box transcription factor 19)	SID134316223	0.93	0.8	inactive
39	QPCTL (glutaminyl-peptide cyclotransferase like)	SID152156410	0.92	0.68	inactive
40	HCN4	SID134311621	0.68	0.84	inactive
41	FBXW9 (F-box and WD repeat domain containing 9)	SID152147275	0.65	0.52	inactive
42	SLCO1B7	SID152151935	0.51	0.75	inactive
43	XIRP2 (xin actin binding repeat containing 2)	SID135625217	1.13	1.04	inactive
44	CBFA2T2 (CBFA2/RUNX1 partner transcriptional co-repressor 2)	SID135621961	1.28	0.6	inactive
45	TNFAIP6 (TNF alpha induced protein 6)	SID135622308	0.46	0.92	inactive
46	CLDN8 (claudin 8)	SID135623265	0.74	0.54	inactive
47	MECR (mitochondrial trans-2-enoyl-CoA reductase)	SID135621855	0.67	0.86	inactive
48	MYO1G (myosin IG)	SID152155144	0.36	1.39	inactive
49	HES4 (hes family bHLH transcription factor 4)	SID134320126	-0.11	1.81	inactive
50	ARHGAP11A (Rho GTPase activating protein 11A)	SID134324729	0.45	1.87	inactive
51	SERHL2 (serine hydrolase like 2)	SID152155837	0.66	0.8	inactive
52	PSMC3IP (PSMC3 interacting protein)	SID152155178	0.48	1.38	inactive
53	DLG5 (discs large MAGUK scaffold protein 5)	SID135621585	0.93	0.51	inactive
54	NXNL2 (nucleoredoxin like 2)	SID134320092	0.51	1.64	inactive
55	BCHE (butyrylcholinesterase)	SID152156466	0.74	0.9	inactive
56	MEN1 (menin 1)	SID135622050	0.2	0.73	inactive
57	LSM7	SID135624142	0.37	0.52	active

Individual results from the entries so far:
Value of ASAP1 (ArfGAP with SH3 domain, ankyrin repeat and PH domain 1) [SID152154104] in “outcome”: inactive
TMEM9B (TMEM9 domain family member B) [SID134324356], outcome → inactive
Under “cell gain with vemurafenib”, GABBR2 (gamma-aminobutyric acid type B receptor subunit 2) [SID134311021] is entered as 0.1
Value for BCHE (butyrylcholinesterase) [SID152156466] under “cell gain with vemurafenib”: 0.74
For “outcome”, DDI2 (DDI proteasomal shuttling factor 2) [SID152148202] reads inactive
Entry for TNFAIP6 (TNF alpha induced protein 6) [SID135622308] under “outcome”: inactive
